Reference: the supplement of paper PMC10849652
Some of the results follow.

Chains of the proteins cited; added tags and fusions are not shown. Lines headed by an entry give the natural chain unless they say otherwise; changes in a name come on top.
UniProt Q9BVM4: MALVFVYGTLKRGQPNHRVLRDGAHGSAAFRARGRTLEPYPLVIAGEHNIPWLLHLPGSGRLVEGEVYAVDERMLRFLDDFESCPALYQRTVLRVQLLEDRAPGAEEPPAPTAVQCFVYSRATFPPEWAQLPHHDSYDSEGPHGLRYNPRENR
UniProt Q9H9Y4: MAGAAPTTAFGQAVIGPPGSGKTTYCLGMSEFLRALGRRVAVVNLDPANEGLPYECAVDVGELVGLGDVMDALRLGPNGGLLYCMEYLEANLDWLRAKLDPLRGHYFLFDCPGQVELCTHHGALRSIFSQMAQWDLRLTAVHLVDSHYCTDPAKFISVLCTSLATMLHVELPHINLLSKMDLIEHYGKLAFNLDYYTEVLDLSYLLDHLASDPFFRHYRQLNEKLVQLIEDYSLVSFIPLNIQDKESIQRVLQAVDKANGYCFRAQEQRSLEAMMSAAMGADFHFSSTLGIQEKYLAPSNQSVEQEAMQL
UniProt Q99795: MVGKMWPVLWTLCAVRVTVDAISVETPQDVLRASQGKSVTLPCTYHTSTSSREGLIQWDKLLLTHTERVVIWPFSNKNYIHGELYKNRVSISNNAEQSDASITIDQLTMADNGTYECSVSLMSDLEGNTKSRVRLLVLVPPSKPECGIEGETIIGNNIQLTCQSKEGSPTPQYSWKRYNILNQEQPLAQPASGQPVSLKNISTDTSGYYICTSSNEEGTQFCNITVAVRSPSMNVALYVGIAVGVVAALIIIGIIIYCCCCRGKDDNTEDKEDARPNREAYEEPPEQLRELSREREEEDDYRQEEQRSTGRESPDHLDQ
UniProt Q5VSY0: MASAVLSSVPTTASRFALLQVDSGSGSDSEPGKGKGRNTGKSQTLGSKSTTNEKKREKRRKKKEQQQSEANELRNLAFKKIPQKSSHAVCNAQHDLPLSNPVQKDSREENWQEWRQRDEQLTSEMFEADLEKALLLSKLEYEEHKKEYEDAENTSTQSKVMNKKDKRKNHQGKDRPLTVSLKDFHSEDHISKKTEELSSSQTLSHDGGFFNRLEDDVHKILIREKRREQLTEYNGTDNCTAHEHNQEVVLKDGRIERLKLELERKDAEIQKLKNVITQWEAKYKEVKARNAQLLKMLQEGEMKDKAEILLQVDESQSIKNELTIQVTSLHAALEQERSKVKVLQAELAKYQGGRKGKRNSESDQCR
UniProt Q14789: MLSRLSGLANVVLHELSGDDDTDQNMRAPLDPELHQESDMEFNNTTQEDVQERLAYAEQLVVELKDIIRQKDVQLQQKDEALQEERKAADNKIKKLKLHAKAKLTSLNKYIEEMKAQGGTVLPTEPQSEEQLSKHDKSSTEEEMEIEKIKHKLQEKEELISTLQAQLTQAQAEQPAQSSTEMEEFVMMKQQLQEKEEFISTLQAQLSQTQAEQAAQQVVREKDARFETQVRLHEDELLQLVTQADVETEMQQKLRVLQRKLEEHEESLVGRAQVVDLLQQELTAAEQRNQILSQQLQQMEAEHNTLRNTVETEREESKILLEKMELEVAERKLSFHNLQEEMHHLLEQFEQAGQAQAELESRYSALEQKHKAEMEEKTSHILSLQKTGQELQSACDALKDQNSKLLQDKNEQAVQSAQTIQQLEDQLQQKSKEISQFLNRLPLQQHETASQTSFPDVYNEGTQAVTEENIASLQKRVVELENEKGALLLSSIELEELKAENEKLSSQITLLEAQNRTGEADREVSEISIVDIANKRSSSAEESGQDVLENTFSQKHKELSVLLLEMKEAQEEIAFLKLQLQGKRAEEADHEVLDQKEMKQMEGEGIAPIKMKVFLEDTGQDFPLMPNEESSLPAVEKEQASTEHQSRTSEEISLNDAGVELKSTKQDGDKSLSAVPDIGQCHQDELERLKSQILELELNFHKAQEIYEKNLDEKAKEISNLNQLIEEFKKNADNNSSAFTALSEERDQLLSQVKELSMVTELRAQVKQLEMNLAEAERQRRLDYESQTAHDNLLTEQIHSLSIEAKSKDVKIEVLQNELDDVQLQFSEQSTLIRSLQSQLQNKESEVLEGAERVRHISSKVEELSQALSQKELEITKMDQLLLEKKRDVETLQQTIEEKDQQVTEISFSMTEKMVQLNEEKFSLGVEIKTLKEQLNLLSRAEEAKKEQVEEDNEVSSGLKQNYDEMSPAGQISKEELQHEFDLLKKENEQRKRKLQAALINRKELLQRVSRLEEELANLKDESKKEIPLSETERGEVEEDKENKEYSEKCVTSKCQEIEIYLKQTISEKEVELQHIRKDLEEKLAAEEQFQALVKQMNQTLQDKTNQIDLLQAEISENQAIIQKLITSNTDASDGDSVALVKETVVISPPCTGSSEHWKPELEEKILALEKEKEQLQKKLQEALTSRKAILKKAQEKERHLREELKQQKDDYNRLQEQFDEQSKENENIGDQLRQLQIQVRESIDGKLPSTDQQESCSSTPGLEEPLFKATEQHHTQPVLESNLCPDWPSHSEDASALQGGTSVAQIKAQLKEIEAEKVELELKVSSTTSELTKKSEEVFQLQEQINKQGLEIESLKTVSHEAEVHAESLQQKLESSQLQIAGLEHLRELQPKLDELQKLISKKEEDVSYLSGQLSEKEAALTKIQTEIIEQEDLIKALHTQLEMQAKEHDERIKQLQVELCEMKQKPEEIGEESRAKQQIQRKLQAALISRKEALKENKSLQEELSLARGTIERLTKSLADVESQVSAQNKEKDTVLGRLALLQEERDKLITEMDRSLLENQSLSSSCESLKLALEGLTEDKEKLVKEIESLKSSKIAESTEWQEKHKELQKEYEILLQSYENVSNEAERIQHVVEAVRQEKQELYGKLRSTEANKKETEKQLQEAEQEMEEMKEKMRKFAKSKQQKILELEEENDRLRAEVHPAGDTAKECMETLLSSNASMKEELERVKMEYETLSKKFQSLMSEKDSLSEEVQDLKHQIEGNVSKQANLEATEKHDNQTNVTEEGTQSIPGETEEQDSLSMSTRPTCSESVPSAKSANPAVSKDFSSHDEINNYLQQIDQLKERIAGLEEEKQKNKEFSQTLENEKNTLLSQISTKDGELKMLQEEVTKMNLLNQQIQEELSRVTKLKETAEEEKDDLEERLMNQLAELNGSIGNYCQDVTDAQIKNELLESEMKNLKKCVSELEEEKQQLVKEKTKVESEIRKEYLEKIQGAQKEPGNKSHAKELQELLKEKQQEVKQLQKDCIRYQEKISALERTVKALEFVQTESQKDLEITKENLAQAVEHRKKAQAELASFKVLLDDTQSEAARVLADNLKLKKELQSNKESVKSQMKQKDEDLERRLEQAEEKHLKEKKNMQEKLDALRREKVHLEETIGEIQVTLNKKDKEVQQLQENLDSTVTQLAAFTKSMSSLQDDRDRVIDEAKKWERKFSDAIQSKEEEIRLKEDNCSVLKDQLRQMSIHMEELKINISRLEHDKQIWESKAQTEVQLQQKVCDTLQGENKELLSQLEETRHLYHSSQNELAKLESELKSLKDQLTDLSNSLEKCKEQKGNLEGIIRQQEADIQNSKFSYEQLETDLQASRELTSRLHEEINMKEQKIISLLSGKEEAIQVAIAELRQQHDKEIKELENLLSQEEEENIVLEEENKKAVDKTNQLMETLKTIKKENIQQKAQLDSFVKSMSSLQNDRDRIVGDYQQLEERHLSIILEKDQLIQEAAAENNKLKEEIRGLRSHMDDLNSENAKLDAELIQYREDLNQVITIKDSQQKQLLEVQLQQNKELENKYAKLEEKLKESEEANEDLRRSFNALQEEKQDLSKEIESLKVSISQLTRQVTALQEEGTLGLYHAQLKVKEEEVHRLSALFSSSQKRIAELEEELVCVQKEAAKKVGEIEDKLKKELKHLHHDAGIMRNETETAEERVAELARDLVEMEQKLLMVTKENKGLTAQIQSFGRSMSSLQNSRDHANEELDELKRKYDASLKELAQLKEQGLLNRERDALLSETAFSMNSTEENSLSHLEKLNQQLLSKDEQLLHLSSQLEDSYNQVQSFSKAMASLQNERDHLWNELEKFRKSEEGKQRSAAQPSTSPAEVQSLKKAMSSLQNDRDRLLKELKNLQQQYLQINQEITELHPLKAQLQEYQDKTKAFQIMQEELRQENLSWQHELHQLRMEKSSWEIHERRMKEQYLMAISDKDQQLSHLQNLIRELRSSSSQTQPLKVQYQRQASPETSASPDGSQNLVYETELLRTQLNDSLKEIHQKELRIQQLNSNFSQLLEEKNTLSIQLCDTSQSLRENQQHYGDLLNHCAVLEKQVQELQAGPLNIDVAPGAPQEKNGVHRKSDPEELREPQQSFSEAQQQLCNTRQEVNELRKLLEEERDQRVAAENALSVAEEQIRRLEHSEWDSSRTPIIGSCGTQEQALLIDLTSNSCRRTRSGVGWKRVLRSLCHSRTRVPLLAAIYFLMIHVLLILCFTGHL
UniProt Q15743: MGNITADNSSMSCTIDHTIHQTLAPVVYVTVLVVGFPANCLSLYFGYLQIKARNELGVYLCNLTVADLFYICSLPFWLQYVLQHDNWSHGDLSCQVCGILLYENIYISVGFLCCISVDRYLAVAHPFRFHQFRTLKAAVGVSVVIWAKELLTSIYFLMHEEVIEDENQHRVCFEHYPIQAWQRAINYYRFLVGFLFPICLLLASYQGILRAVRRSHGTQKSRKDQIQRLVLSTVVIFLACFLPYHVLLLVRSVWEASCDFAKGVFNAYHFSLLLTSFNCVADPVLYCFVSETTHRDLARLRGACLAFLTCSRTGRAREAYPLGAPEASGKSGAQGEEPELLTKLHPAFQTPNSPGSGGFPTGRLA
UniProt P36915, whole entry, looked up: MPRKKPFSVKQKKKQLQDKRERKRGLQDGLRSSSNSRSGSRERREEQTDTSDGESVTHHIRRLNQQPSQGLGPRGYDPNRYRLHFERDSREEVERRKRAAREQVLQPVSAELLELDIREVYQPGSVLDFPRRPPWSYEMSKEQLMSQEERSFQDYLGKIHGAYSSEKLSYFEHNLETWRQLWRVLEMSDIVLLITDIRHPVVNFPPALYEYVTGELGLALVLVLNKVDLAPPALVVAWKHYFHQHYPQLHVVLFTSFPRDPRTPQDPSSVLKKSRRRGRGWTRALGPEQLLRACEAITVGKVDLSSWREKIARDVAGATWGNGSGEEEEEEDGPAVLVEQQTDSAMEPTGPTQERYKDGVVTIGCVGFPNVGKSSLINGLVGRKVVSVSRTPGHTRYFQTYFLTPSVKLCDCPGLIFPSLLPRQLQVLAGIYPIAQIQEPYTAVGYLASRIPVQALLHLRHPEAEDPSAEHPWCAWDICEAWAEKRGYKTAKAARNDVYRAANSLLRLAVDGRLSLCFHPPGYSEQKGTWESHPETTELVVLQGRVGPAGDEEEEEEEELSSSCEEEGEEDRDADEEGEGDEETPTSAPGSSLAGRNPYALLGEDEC
UniProt Q9NZD2: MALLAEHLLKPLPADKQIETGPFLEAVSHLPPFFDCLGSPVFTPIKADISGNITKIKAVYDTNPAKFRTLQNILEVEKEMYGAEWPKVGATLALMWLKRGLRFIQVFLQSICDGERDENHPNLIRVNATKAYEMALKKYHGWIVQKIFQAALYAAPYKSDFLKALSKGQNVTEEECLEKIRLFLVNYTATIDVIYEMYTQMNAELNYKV
UniProt Q9NU53: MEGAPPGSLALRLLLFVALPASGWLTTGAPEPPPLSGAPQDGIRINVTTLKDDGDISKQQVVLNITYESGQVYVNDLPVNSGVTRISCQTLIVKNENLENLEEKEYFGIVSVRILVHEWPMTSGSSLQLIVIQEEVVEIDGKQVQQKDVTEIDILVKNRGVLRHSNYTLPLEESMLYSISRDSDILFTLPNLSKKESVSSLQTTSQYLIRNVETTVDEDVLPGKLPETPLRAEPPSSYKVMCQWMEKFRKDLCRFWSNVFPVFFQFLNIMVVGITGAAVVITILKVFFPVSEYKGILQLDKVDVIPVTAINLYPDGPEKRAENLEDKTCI
UniProt Q86YR5: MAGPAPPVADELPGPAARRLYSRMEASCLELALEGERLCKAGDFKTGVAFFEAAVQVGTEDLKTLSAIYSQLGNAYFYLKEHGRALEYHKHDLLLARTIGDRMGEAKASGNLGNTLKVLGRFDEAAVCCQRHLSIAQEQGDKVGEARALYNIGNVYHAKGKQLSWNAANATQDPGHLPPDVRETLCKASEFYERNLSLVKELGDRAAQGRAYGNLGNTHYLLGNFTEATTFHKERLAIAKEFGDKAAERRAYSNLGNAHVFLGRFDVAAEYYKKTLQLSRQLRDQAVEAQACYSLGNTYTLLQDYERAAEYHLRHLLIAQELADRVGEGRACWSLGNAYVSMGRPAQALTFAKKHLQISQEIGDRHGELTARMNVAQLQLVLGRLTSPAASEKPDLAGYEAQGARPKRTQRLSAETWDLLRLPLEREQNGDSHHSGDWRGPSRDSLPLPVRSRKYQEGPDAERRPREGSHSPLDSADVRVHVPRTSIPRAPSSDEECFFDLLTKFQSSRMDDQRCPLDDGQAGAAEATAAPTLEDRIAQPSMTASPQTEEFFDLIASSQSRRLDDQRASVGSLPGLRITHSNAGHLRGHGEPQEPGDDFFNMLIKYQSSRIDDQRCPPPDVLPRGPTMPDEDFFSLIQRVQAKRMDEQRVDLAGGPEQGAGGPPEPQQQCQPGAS

Tests used:
Test in all cases: log2 fold change, soluble protein after heating vs DMSO (PISA); higher = thermal stabilisation; K562 lysate, 10 uM; active = over 0.2 and 3.5 SD of the protein, either way, in both replicates (recomputed)
[1] = compound: CCn1cc(-c2ccnc3[nH]c(-c4cccc(CN(C)C)c4)cc23)c(-c2ccc(NC(=O)N(C)C)cc2)n1
Procedure, shortened: (§1)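 Following dounce homogenisation of K562 pellets in PBS pH 7.4 with 1 mM MgCl2, crude extract at 1 mg/mL protein was incubated for 30 min with 10 μM compound. Aliquots were then heated for 3 min over 48°C-58°C and pooled, NP-40 was added to 0.5% at 4°C, and soluble protein was recovered as the supernatant at 21,000xg for 90 min. Channel-sum-equalised TMTpro 16plex LC-MS/MS quantified this protein. Each value, from duplicates, is a log-two fold change in thermal stability relative to solvent controls.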

[2] = compound: CN1CCC(CNc2ccc3ncc(-c4cccc(OC(F)(F)F)c4)n3n2)CC1
Procedure, shortened: as §1

sotrastaurin = compound: CN1CCN(c2nc(C3=C(c4c[nH]c5ccccc45)C(=O)NC3=O)c3ccccc3n2)CC1 [sotrastaurin]
Procedure, shortened: as §1

alvocidib = compound: CN1CC[C@H](c2c(O)cc(O)c3c(=O)cc(-c4ccccc4Cl)oc23)[C@H](O)C1 [alvocidib]
Procedure, shortened: as §1

vemurafenib = compound: CCCS(=O)(=O)Nc1ccc(F)c(C(=O)c2c[nH]c3ncc(-c4ccc(Cl)cc4)cc23)c1F [vemurafenib]
Procedure, shortened: as §1

[3] = compound: CCCS(=O)(=O)Nc1ccc(F)c(C(=O)c2c[nH]c3ncc(Cl)cc23)c1F
Procedure, shortened: as §1

barasertib = compound: CCN(CCCOc1ccc2c(Nc3cc(CC(=O)Nc4cccc(F)c4)[nH]n3)ncnc2c1)CCOP(=O)(O)O [barasertib]
Procedure, shortened: as §1

[4] = compound: CC[C@@H]1C(=O)N(C)c2cnc(Nc3ccc(C(=O)NC4CCN(C)CC4)cc3OC)nc2N1C1CCCC1
Procedure, shortened: as §1

volasertib = compound: CC[C@@H]1C(=O)N(C)c2cnc(Nc3ccc(C(=O)N[C@H]4CC[C@H](N5CCN(CC6CC6)CC5)CC4)cc3OC)nc2N1C(C)C [volasertib]
Procedure, shortened: as §1

[5] = compound: CCn1c(C(=O)N(C2CC2)C2CC2)cc2c3c(ncn3C)c(Nc3cc(C)n(C)n3)nc21
Procedure, shortened: as §1

saracatinib = compound: CN1CCN(CCOc2cc(OC3CCOCC3)c3c(Nc4c(Cl)ccc5c4OCO5)ncnc3c2)CC1 [saracatinib]
Procedure, shortened: as §1

Tubastatin A = compound: CN1CCc2c(c3ccccc3n2Cc2ccc(C(=O)NO)cc2)C1 [Tubastatin A]
Procedure, shortened: as §1

[6] = compound: CNC(=O)C1=CC=CC=C1NC2=NC(=NC=C2Cl)NC3=C(C=C(C=C3)N4CCOCC4)OC
Procedure, shortened: as §1

defactinib = compound: CNC(=O)c1ccc(Nc2ncc(C(F)(F)F)c(NCc3nccnc3N(C)S(C)(=O)=O)n2)cc1 [defactinib]
Procedure, shortened: as §1

[7] = compound: CNc1nc(-c2ccc3c(N)n[nH]c3c2)cc(N2C[C@@H](C(=O)NC3CCCCC3)CC[C@H]2C)n1
Procedure, shortened: as §1

encorafenib = compound: COC(=O)N[C@@H](C)CNc1nccc(-c2cn(C(C)C)nc2-c2cc(Cl)cc(NS(C)(=O)=O)c2F)n1 [encorafenib]
Procedure, shortened: as §1

[8] = compound: COC(=O)[C@H](CCSC)NC(=O)C1=C(C=C(C=C1)NC[C@H](CS)N)C2=CC=CC=C2
Procedure, shortened: as §1

[9] = compound: COc1cc2nc(-c3cc(F)ccc3O)nc(N[C@@H]3CNC[C@H]3C(C)(C)O)c2cc1OC
Procedure, shortened: as §1

alisertib = compound: COc1cc(Nc2ncc3c(n2)-c2ccc(Cl)cc2C(c2c(F)cccc2OC)=NC3)ccc1C(=O)O [alisertib]
Procedure, shortened: as §1

gefitinib = compound: COc1cc2ncnc(Nc3ccc(F)c(Cl)c3)c2cc1OCCCN1CCOCC1 [gefitinib]
Procedure, shortened: as §1

Measured: log2 fold change

GOLIM4 (UniProt F8W785)
inactive: [1] 0.124 | [2] -0.131 | sotrastaurin 0.021 | alvocidib -0.015

GGACT (UniProt Q9BVM4)
inactive: vemurafenib 0.08 | [3] 0.035 | barasertib -0.078 | [4] -0.024 | volasertib 0.064 | [5] -0.032 | [1] -0.152 | [2] 0.01 | saracatinib 0.025 | sotrastaurin -0.095 | alvocidib 0.043 | Tubastatin A -0.029 | [6] -0.013 | defactinib 0.044 | [7] -0.147 | encorafenib 0.131 | [8] -0.102 | [9] 0.016

GPN2 (UniProt Q9H9Y4)
inactive: vemurafenib -0.027 | [3] 0.026 | [4] -0.098 | volasertib -0.028 | [5] 0.072 | [1] 0.009 | [2] 0.019 | saracatinib 0.003 | sotrastaurin 0.021 | alvocidib -0.034 | Tubastatin A -0.027 | [6] -0.004 | defactinib 0.112 | [7] -0.007 | encorafenib 0.19 | [8] -0.038 | alisertib 0.008 | [9] -0.038 | gefitinib -0.001

GLCE (UniProt O94923)
inactive: [3] -0.022 | barasertib 0.117 | [4] 0.048 | volasertib 0.108 | [5] -0.043 | [1] -0.063 | [2] -0.014 | saracatinib 0.063 | sotrastaurin -0.047 | alvocidib -0.007 | Tubastatin A 0.117 | [6] -0.002 | [7] 0.031 | encorafenib 0.016 | [8] -0.101 | alisertib -0.157 | [9] -0.022 | gefitinib 0.153

GK5 (UniProt Q6ZS86)
inactive: sotrastaurin -0.09

GPA33 (UniProt Q99795)
inactive: vemurafenib -0.038 | [3] -0.014 | barasertib -0.047 | [4] -0.011 | volasertib 0.081 | [5] -0.032 | saracatinib -0.005 | alvocidib -0.349 | Tubastatin A 0.103 | [6] -0.076 | defactinib -0.099 | [7] -0.193 | encorafenib 0.053 | [8] -0.027 | alisertib 0.071 | [9] 0.039 | gefitinib 0.125
active: [1] -0.925 | [2] 0.612

GKAP1 (UniProt Q5VSY0)
inactive: sotrastaurin 0.111

GLRX (UniProt P35754)
inactive: vemurafenib 0.122 | [4] -0.151 | sotrastaurin 0.052 | defactinib 0.065 | encorafenib 0.073 | [8] -0.009

GOSR1 (UniProt E9PCW1)
inactive: barasertib 0.486 | [5] 0.19 | [1] 0.096 | [2] 0.002 | saracatinib -0.057 | sotrastaurin -0.05 | alvocidib -0.073 | Tubastatin A 0.076 | [7] -0.071 | alisertib 0.028 | gefitinib -0.018

GOLGB1 isoform 4 (UniProt Q14789)
inactive: [5] -0.04 | saracatinib 0.058 | Tubastatin A 0.04 | [7] -0.029

GOLGA4 (UniProt Q13439)
inactive: vemurafenib 0.135 | barasertib 0.583 | [4] 0.013 | [5] -0.071 | saracatinib -0.022 | sotrastaurin 0.037 | Tubastatin A -0.011 | [6] -0.027 | defactinib 0.09 | [7] 0.05 | encorafenib -0.052 | [8] 0.102 | alisertib -0.088 | gefitinib -0.083

GPR180 (UniProt Q86V85)
inactive: sotrastaurin 0.084

GPR68 (UniProt Q15743)
inactive: sotrastaurin -0.037

GPATCH2L (UniProt Q9NWQ4)
inactive: [4] 0.064 | [5] -0.121 | saracatinib 0.036 | sotrastaurin -0.1 | Tubastatin A -0.127 | [7] 0.16 | encorafenib 0.007 | [8] 0.142

GPRC5C isoform 2 (UniProt Q9NQ84)
inactive: [1] 0.018 | [2] 0.08 | alvocidib -0.127

GNL1 (UniProt P36915)
inactive: vemurafenib 0.009 | [3] 0.034 | barasertib 0.002 | [4] -0.041 | volasertib -0.046 | [5] 0.014 | [1] 0.028 | [2] -0.041 | saracatinib 0.007 | sotrastaurin 0.007 | alvocidib 0.032 | Tubastatin A -0.036 | [6] 0.004 | defactinib -0.02 | [7] -0.022 | encorafenib 0.019 | [8] -0.029 | alisertib 0.011 | [9] -0.011 | gefitinib -0.03

GLTP (UniProt Q9NZD2)
inactive: vemurafenib 0.028 | [3] -0.039 | barasertib 0.165 | [4] 0.129 | volasertib 0.065 | [5] 0.067 | [1] 0.097 | [2] -0.245 | saracatinib 0.039 | sotrastaurin 0.095 | alvocidib 0.086 | Tubastatin A 0.013 | [6] -0.013 | defactinib 0.048 | [7] -0.035 | encorafenib -0.021 | [8] -0.068 | [9] 0.026

GOLGA4 isoform 5 (UniProt Q13439)
inactive: vemurafenib 0.026 | [3] 0.022 | barasertib 0.031 | [4] 0.048 | volasertib 0.006 | [5] -0.008 | [1] -0.028 | [2] 0.012 | saracatinib 0.021 | sotrastaurin -0.002 | alvocidib -0.07 | Tubastatin A -0.018 | [6] 0.034 | defactinib -0.006 | [7] 0.012 | encorafenib 0.016 | [8] 0.012 | alisertib -0.028 | [9] -0.013 | gefitinib 0.001

GINM1 (UniProt Q9NU53)
inactive: [1] -0.903 | [2] 0.397 | sotrastaurin -0.041 | alvocidib -0.362 | [6] -0.135 | alisertib 0.065 | gefitinib 0.1

GPSM1 (UniProt Q86YR5)
inactive: vemurafenib 0.093 | [4] -0.014 | sotrastaurin 0.017 | [6] -0.001 | defactinib -0.007 | encorafenib 0.015 | [8] 0.03

2 entries drawn at random from those above, as already listed:
GOLGB1 isoform 4 (UniProt Q14789)
inactive: [5] -0.04 | saracatinib 0.058 | Tubastatin A 0.04 | [7] -0.029

GNL1 (UniProt P36915)
inactive: vemurafenib 0.009 | [3] 0.034 | barasertib 0.002 | [4] -0.041 | volasertib -0.046 | [5] 0.014 | [1] 0.028 | [2] -0.041 | saracatinib 0.007 | sotrastaurin 0.007 | alvocidib 0.032 | Tubastatin A -0.036 | [6] 0.004 | defactinib -0.02 | [7] -0.022 | encorafenib 0.019 | [8] -0.029 | alisertib 0.011 | [9] -0.011 | gefitinib -0.03
